No constants are given. Whether binding was seen depends on the method and setting. Binding seen in cells or lysates may run through a third protein. Some results given as binding are weak or reduced against the parent protein; the word gives no strength. For part of these data: Where a sequence is shown, tags or fusion partners need not be part of it.
How the values were obtained:
[1] = target: HA-ENO1-Y189E (human) (UniProt P06733); assay: co-IP; C4-2B cells expressing ENO1 mutants (Y189F, Y189E), in the presence of ECM1 (200 ng/mL); ENO1 against GRB2 and SOS1
[2] = target: Enolase 1 (ENO1), endogenous in C4-2B cells (human (endogenous in C4-2B)) (UniProt P06733); assay: co-IP; endogenous ENO1 with GRB2 and SOS1 in C4-2B lysates, in the presence or absence of ECM1 (200 ng/mL)
[3] = target: T1, Recombinant human ECM1 tagged with Flag (extracellular matrix protein 1) (human) (UniProt Q16610); assay: co-IP; C4-2B cells treated with ECM1-Flag protein (200 ng/mL); lysates; antibodies with protein A/G magnetic beads overnight at 4 °C or anti-Flag beads; western blot of endogenous partners; only the target purified
T1 sequence: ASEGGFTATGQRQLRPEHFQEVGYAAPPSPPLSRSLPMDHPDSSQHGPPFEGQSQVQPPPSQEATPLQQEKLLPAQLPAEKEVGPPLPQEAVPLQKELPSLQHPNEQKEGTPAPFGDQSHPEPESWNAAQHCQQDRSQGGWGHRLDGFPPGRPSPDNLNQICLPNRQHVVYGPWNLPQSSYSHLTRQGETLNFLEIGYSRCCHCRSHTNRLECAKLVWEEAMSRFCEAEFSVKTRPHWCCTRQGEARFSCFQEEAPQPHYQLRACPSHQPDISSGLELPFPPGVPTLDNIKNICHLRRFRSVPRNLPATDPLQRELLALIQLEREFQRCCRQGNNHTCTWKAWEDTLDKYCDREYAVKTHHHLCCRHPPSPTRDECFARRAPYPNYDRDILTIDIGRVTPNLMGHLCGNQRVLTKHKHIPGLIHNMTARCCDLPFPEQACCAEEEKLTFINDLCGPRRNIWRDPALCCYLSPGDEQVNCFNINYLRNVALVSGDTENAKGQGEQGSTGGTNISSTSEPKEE

Chains of the proteins cited; added tags and fusions are not shown. Lines headed by an entry give the natural chain unless they say otherwise; changes in a name come on top.
UniProt P06733: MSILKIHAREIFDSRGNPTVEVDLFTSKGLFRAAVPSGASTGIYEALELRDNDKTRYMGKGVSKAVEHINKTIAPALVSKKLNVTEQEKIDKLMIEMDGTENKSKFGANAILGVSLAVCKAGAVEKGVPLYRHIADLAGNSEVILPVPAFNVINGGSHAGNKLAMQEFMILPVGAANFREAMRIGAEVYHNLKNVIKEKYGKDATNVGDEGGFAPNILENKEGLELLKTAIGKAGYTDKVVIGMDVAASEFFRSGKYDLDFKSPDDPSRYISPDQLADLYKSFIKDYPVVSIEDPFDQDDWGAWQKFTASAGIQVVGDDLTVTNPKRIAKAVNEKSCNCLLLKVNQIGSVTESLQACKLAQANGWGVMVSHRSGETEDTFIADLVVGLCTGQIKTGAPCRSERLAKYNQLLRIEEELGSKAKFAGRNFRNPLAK
UniProt P62993: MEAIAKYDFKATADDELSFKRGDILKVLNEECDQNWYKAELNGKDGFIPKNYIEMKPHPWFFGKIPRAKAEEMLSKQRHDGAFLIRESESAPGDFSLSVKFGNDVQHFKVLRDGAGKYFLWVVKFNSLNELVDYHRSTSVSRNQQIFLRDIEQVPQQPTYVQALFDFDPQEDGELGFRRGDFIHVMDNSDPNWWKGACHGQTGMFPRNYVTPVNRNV

| binding [1] | binding [2] | binding [3] | Substance |
| --- | --- | --- | --- |
| binds | binds | – | Growth factor receptor-bound protein 2 (GRB2), endogenous in C4-2B cells (from UniProt P62993 1-217) |
| – | – | binds | Enolase 1 (ENO1), endogenous in C4-2B cells (from UniProt P06733 1-434) (receptor) |

From article PMC11727142
